# Assay results as given in publication PMC5996148.
# The other results are listed elsewhere or left out.
# How the values were obtained:
# Test in all cases: protein microarray (ProtoArray v5.0), streptavidin-Alexa Fluor 647
# Conditions in all cases: 3'-biotin; 20 mM Tris (pH 7.5), 5 mM MgCl2, 100 mM KCl, 0.1% Tween-20, A/T-rich and random oligonucleotide blockers; temperature not stated; high values mean tight binding
# [1] = test system: Trafficking protein particle complex subunit 6A (human)
# [2] = test system: Transaldolase (human)
# [3] = test system: Transcription initiation factor TFIID subunit 8 (human)
# [4] = test system: Transducin-like enhancer protein 4 (human)
# [5] = test system: Transmembrane 4 L6 family member 1 (human)
# [6] = test system: Transmembrane 4 L6 family member 18 (human)
# [7] = test system: Transmembrane protein 107 (human)
# [8] = test system: Transmembrane protein 120A (human)
# [9] = test system: Transmembrane protein 156 (human)
# [10] = test system: Transmembrane protein 188 (human)
sequence,measurement,setting,value
GGGAGGCTGAGGCAGG [G4-1 biotinylated (PQS2)],binding signal,[1],-0.328 z-score
same,binding signal,[2],-0.355 z-score
same,binding signal,[3],-0.356 z-score
same,binding signal,[4],-0.327 z-score
same,binding signal,[5],-0.335 z-score
same,binding signal,[6],-0.304 z-score
same,binding signal,[7],-0.298 z-score
same,binding signal,[8],-0.298 z-score
same,binding signal,[9],-0.356 z-score
same,binding signal,[10],-0.307 z-score
